Measured data: PubChem BioAssay AID1259326 (Drosophila RNAi Screening Center, 2017)

Screen: 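Knock-downs that shift cellular ATP after a high zinc chloride dose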
System: Drosophila S2R+ cells
Reagents: long dsRNA against Drosophila genes
Timing: about 5 days (4 days of RNAi, then 1 day of zinc)
Challenge: zinc chloride added to 15 mM final for one day
Measured: 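Cellular ATP measured by luciferase light as a viable-cell proxy, after 4 days of RNAi and 1 day in 15 mM zinc chloride; replicate z-scores averaged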
Scale: averaged z-score: higher = more ATP than other wells, i.e. more surviving cells, after zinc; ATP luminescence: higher = more ATP, i.e. more surviving cells
Rule for the call: 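Called active when the averaged z-score lies outside -1.5 to 1.5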
The whole screen tested 573 reagents; below is a random part of them. 39 of them (6.8%) were called active. 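All actives have raised ATP, meaning more surviving cells; in these data active calls sit at averaged z-scores near 1.5 or above.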 Raw values vary from plate to plate and are shown uncorrected. The numbers tell different reagents against one gene apart. Reagent sequences are not shown. The record does not give: the amount of reagent.

Knock-down of Rpt1 #1 came out at: averaged z-score 0.383; ATP luminescence, replicate 1 = 97196; ATP luminescence, replicate 2 = 88932; inactive.
Silencing of Rpt1 #2 gave: averaged z-score 0.471; ATP luminescence, replicate 1 = 89104; ATP luminescence, replicate 2 = 83855; inactive.
Against Rpt1 #3, the values are averaged z-score 1.13; ATP luminescence, replicate 1 = 85604; ATP luminescence, replicate 2 = 94371; inactive.
With knock-down of Ask1 #1, the screen gave averaged z-score -0.216; ATP luminescence, replicate 1 = 93290; ATP luminescence, replicate 2 = 80424; inactive.
Ask1 #2 gave averaged z-score -0.311; ATP luminescence, replicate 1 = 68728; ATP luminescence, replicate 2 = 68139; inactive.
Ask1 #3 scored averaged z-score -0.31; ATP luminescence, replicate 1 = 54030; ATP luminescence, replicate 2 = 73649; inactive.
eIF3a #1 scored averaged z-score 2.02; ATP luminescence, replicate 1 = 1.30e5; ATP luminescence, replicate 2 = 1.30e5; active.
For eIF3a #2 the deposit lists averaged z-score 2.51; ATP luminescence, replicate 1 = 1.32e5; ATP luminescence, replicate 2 = 1.15e5; active.
Against eIF3a #3, the entry reads averaged z-score 2.14; ATP luminescence, replicate 1 = 1.05e5; ATP luminescence, replicate 2 = 1.23e5; active.
S6k #1 scored averaged z-score -0.137; ATP luminescence, replicate 1 = 96035; ATP luminescence, replicate 2 = 76282; inactive.
Against S6k #2, the values are averaged z-score 0.575; ATP luminescence, replicate 1 = 87560; ATP luminescence, replicate 2 = 90905; inactive.
Against CG3803 #1, the values are averaged z-score 0.235; ATP luminescence, replicate 1 = 1.12e5; ATP luminescence, replicate 2 = 76074; inactive.
For CG3803 #2, the values are averaged z-score -0.232; ATP luminescence, replicate 1 = 79240; ATP luminescence, replicate 2 = 71591; inactive.
With knock-down of CG3803 #3, the record shows averaged z-score -0.257; ATP luminescence, replicate 1 = 67217; ATP luminescence, replicate 2 = 76736; inactive.

In a second layout: results already given
predicted target | reagent no. | averaged z-score | ATP luminescence, replicate 1 | ATP luminescence, replicate 2 | outcome
Rpt1 | 1 | 0.383 | 97196 | 88932 | inactive
Rpt1 | 2 | 0.471 | 89104 | 83855 | inactive
